Laboratory results from patent US20150259687A1.
These are yes or no findings as the source states them, for the method shown. In cells and extracts the contact can be indirect. Some binding calls cover weakened binding; strength is not graded here.

Target: FLAG-EGFP-RelA (full length human RelA expressed as a FLAG-EGFP fusion protein in A549 cells) (human), Q04206
Test: co-purification with FLAG-EGFP-RelA on anti-FLAG M2 gel (Load lane), immunoblot with anti-IκBα. IκBα stays in the flow-through of the following Bt-P028F4 aptamer capture.
Details: remark: other sources report otherwise

binding: binds
B1: IκBα, P25963 (protein, human, UniProt P25963 1-317, looked up)
single chain: MFQAAERPQEWAMEGPRDGLKKERLLDDRHDSGLDSMKDEEYEQMVKELQEIRLEPQEVPRGSEPWKQQLTEDGDSFLHLAIIHEEKALTMEVIRQVKGDLAFLNFQNNLQQTPLHLAVITNQPEIAEALLGAGCDPELRDFRGNTPLHLACEQGCLASVGVLTQSCTTPHLHSILKATNYNGHTCLHLASIHGYLGIVELLVSLGADVNAQEPCNGRTALHLAVDLQNPDLVSLLLKCGADVNRVTYQGYSPYQLTWGRPSTRIQQQLGQLTLENLQMLPESEDEESYDTESEFTEFTEDELPYDDCVFGGQRLTL
modifications: here or on the partner: phospho-Ser 536 detected in the P028F4 eluate
